This is an account of results in publication PMC9454964.

The chains behind the UniProt entries cited, without tags or fusion partners. Where a name states a change or a piece, a line headed by the entry shows the natural chain unless it says otherwise.
UniProt O95817: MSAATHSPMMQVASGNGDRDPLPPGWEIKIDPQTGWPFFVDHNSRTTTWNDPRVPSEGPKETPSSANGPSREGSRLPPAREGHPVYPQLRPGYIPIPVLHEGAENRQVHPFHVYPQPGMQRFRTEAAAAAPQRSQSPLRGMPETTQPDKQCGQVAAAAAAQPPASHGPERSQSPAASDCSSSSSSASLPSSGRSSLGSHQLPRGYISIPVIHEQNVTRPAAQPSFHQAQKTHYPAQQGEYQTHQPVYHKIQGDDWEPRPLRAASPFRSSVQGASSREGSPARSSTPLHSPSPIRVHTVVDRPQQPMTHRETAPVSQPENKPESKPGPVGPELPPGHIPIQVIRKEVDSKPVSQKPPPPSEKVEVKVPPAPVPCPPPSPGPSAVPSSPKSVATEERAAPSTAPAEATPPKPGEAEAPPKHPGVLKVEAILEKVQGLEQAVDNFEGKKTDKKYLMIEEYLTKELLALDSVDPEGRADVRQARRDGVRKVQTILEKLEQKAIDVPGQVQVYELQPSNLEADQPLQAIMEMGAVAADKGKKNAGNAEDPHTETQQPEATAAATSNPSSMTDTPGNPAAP
UniProt Q99732: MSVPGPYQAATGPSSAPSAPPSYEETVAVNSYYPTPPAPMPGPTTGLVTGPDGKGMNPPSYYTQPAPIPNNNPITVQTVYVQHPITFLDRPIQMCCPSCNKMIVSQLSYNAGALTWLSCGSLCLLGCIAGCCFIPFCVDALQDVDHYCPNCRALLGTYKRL

These are yes or no findings as the source states them, for the method shown. In cells and extracts the contact can be indirect. A result given as binding can be weak or reduced; the word gives no strength.

The experiment has as its target His-tagged Bag3 ΔWW (deletion of WW domain) (UniProt O95817). The experiment in a line: pull-down; transfected 293T cells fixed with 1.2% formaldehyde, lysed (DPBS, 0.5% Triton X-100, 10 mM imidazole), His-tagged Bag3 held on HisPur Ni-NTA resin at 4 °C, washed, eluted with 300 mM imidazole; associated LITAF detected by immunoblot.

“lipopolysaccharide TNFα factor (LITAF) (from UniProt Q99732 1-161)”: the binding result is listed as “binds”.
